According to US6034231A, “Human CNP gene and precursor protein” (Suntory Limited, priority 1990, dated 2000):
At least one peptide structure holds a part that was inferred or is arguable (an end, a ring closure or a residue). Positions of bridges follow the written chain, without caps; N, C: chain ends. No end group written: not given here.

Tested on: rats
Assay: Natriuretic and hypotensive actions (method of DeBold et al.)
Assay type: in vivo

DLRVDTKSRAAWARLLQEHPNARKYKGANKKGLSKGCFGLKLDRIGSMSGLGC (disulfide 37-53) [hCNP-53]
Natriuretic and hypotensive actions (in words) (administered to rats): definite natriuretic and hypotensive actions | Increase of urine clearance (dose of 100 nmol/kg): 2.5 times | Reduction of blood pressure (dose of 100 nmol/kg): 10%
